Record: PubChem BioAssay AID1224828 (NIAID, 2016)

Aim: 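Knock-downs that increase or decrease LPS-induced p65 nuclear translocation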 (primary screen)
Cells: mouse RAW264.7 G9 macrophage reporter cells (GFP-p65, Tnf promoter-mCherry)
Reagents: siRNA pool against mouse genes, 100 nM
Duration: 2 days siRNA transfection, then 40 min LPS before fixation
Treatment: LPS (Salmonella minnesota R595) at 10 ng/ml
Measurement: 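Imaged p65 nuclear translocation ratio, normalised to the plate median, converted to robust z-scores and averaged across two replicates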
Reading the numbers: p65 translocation robust z-score: higher = more nuclear NF-kappaB p65 after LPS than the plate median; nuclear/cytoplasmic p65 ratio: higher = more nuclear NF-kappaB p65
Rule for the call: 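Active if robust z is above 3.3 (negative regulators) or below -1.56, the Tlr4 control median (positive regulators); activity score 50 or more; control wells not called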
Calls: active = hit (p65 shift raised or lowered); inactive = no clear change
In all, the deposit lists about 17,000 reagents; shown is an unselected part. In the full data, 762 (4.5%) were called active. 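Active calls include both raised and lowered p65 entry, mostly lowered; wells with fewer than 50 cells lack a z-score.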 Raw values are not corrected between plates. A number with no mark means an inactive call.

gene	p65 translocation robust z-score	nuclear/cytoplasmic p65 ratio, rep 1	nuclear/cytoplasmic p65 ratio, rep 2	low cell count flag
Serpina5	0.39	1.6	1.62	enough cells to score
Lcn3	1.86	1.82	1.68	enough cells to score
Arl8a	-1.36	1.41	1.31	enough cells to score
Ceacam1	0.75	1.54	2.08	enough cells to score
Rab2a	0.89	1.62	1.66	enough cells to score
Tprn	1.54	1.68	1.7	enough cells to score
Ralgps1	1.54	1.59	1.38	enough cells to score
Dlec1	0.42	1.67	1.57	enough cells to score
Gjc1	0.26	1.44	1.43	enough cells to score
Tctn2	0.61	1.39	1.29	enough cells to score
Tpp1	-1.38	1.27	1.21	enough cells to score
Sfswap	1.67	1.73	1.86	enough cells to score
Trpm6	0.54	1.74	1.48	enough cells to score
Hyal2	-1.26	1.43	1.21	enough cells to score
Trim2	1.1	1.6	1.23	enough cells to score
Or8b1	-0.8	1.22	1.27	enough cells to score
Lrrn4	-1.13	1.3	1.49	enough cells to score
Or51t4		1.42	0	fewer than 50 cells per well; well left out of scoring
Pak2	1.93	1.53	1.62	enough cells to score
5330439B14Rik	-0.36	1.38	1.35	enough cells to score
Gabrb1	-1.29	1.23	1.24	enough cells to score
Ucma	-0.48	1.38	1.47	enough cells to score
Brcc3		1.15	1.37	fewer than 50 cells per well; well left out of scoring
Actrt2	-1.31	1.38	1.36	enough cells to score
Cxcr6	-2.38 (active)	1.14	1.27	enough cells to score
Tlr5	0.77	1.47	1.78	enough cells to score
Vwc2	-1.08	1.22	1.39	enough cells to score
Col26a1	0.62	1.57	1.42	enough cells to score
Pgbd5	0.44	1.45	1.29	enough cells to score
Klhl23	0.68	1.52	1.54	enough cells to score
Drd3		1.61	1.14	fewer than 50 cells per well; well left out of scoring
Or10d5j	1.15	1.6	1.25	enough cells to score
Slpi	-0.51	1.47	1.43	enough cells to score
Trappc6a		1.29	1.55	fewer than 50 cells per well; well left out of scoring
Kyat3	-1.38	1.36	1.62	enough cells to score
1700082M22Rik		1.43	1.47	fewer than 50 cells per well; well left out of scoring
Strn3	-0.9	1.31	1.12	enough cells to score
Kansl3	0.95	1.4	1.36	enough cells to score
Ppm1k	3.14	1.66	2.1	enough cells to score

Records listed above called active (1):
gene	p65 translocation robust z-score	nuclear/cytoplasmic p65 ratio, rep 1	nuclear/cytoplasmic p65 ratio, rep 2	low cell count flag
Cxcr6	-2.38 (active)	1.14	1.27	enough cells to score

The results go on:
gene	p65 translocation robust z-score	nuclear/cytoplasmic p65 ratio, rep 1	nuclear/cytoplasmic p65 ratio, rep 2	low cell count flag
Tcf4	-0.76	1.48	1.34	enough cells to score
Tfdp1	0.08	1.46	1.6	enough cells to score
Morf4l2	-0.7	1.55	1.59	enough cells to score
Susd4	3.96 (active)	2.01	1.42	enough cells to score
Rnf41	0.06	1.42	1.23	enough cells to score
Ctnnbl1	1.12	1.65	1.5	enough cells to score
Mrpl48	1.34	1.99	1.8	enough cells to score
Fpr1		1.34	1.39	fewer than 50 cells per well; well left out of scoring
Has3	1.28	1.92	1.66	enough cells to score
Slc35f3		1.69	1.09	fewer than 50 cells per well; well left out of scoring
Adamtsl4	1.42	1.65	1.32	enough cells to score
Reg3a	0.04	1.41	1.24	enough cells to score
Sec11c		1.62	1.13	fewer than 50 cells per well; well left out of scoring
Adat1	-0.42	1.51	1.66	enough cells to score
Fcer1a	-0.26	1.41	1.35	enough cells to score
Or4c116	2.15	2.08	1.81	enough cells to score
Kbtbd4	0.36	1.52	1.55	enough cells to score
Il4i1	0.44	1.61	1.53	enough cells to score
Clec10a	-0.59	1.84	1.28	enough cells to score
Tmem147	-1.68 (active)	1.15	1.34	enough cells to score
